Reference: PubChem BioAssay AID504467 (National Center for Advancing Translational Sciences (NCATS), 2011)
Screen size: about 330,000 compounds; about 7,700 (2.3%) were called active. Inconclusive results, whose numbers are uncertain, are shown with a selection of clear calls. The call rests on the fitted dose curve; in most records, active means well fitted inhibition curve with a large enough effect; inconclusive means small, poorly fitted or top-dose-only effect, or effect the other way; inactive means flat fitted curve, though single readings scatter. Where the call is inconclusive, the potency comes from a doubtful curve fit.

Assay: qHTS screen for small molecules that inhibit ELG1-dependent DNA repair in human embryonic kidney (HEK293T) cells expressing luciferase-tagged ELG1; further: nearly all actives have a fitted effect of over 55% in size
Conditions: HEK293T ELG1-luciferase reporter, luminescence, 16 h, DNA damage induced by 5-fluorouridine; activity change, negative = inhibition: at 46.1 µM (top of the series)
Outline: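 In this reporter screen, reduction of luminescence relative to DMSO vehicle indicated activity. Compounds and 5-fluorouridine were added together to 2,000 cells per well, incubated for 16 hr at 37 °C, then developed with ONE-Glo.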
On the % scale 0 is the no-effect control and ±100 the full control effect; potency means the concentration at half of the fitted maximal effect.

Row | SMILES | Potency | activity change, negative = inhibition
1 | COc1cc(C#Cc2c(C=O)n(C)c3ccccc23)cc(OC)c1 | inconclusive: 29.1 µM [inhibitor, single point] | 
2 | CC(C)(C)c1ccc(C(=O)OCCN2CCCCC2)cc1 | inconclusive: 32.6 µM [activator, single point] | 
3 | Nc1ccc(C(=O)N/N=C\c2cc(N=Nc3cccc4ccccc34)ccc2O)cc1 | inconclusive: 5.17 µM [inhibitor, partial curve, poor fit] | 
4 | COc1ccc(-c2cc(C(=O)Nc3ccccc3SC)no2)cc1OC | inconclusive: 29.1 µM [activator, single point] | 
5 | Cc1ccc(N2CCN(c3ccc(C)cc3)C(CC(=O)O)C2=O)cc1 (stereo not drawn) | inconclusive: 16.4 µM [activator, partial curve, poor fit] | 
6 | COc1cc(/C=C2/CCc3ccccc3C2=O)cc(OC)c1OC | inconclusive: 29.1 µM [inhibitor, single point] | 
7 | Cc1cccc(NC(=O)c2cccc(NC3=NC4CS(=O)(=O)CC4S3)c2)c1 (stereo not drawn) | inconclusive: 5.8 µM [inhibitor, single point] | 
8 | CCC(=O)Nc1cccc(-c2ccc(N3CCCCC3)nn2)c1 | inconclusive: 2.59 µM [activator, partial curve] | 
9 | Cc1cccc(NC(=O)Nc2ccncc2)c1 | inconclusive: 20.6 µM [activator, partial curve] | 
10 | COc1ccc(/C=C/C(=O)Nc2ccncc2)cc1OC |  | inactive: 5.06%
11 | O=c1[nH]c(CSc2nnc(-c3cccnc3)n2C2CCCCC2)nc2ccccc12 | inconclusive: 14.6 µM [inhibitor, partial curve, poor fit] | 
12 | CCOC(=O)c1ccc(N2Cc3ccccc3C2=NC(=O)c2ccncc2)cc1 | inconclusive: 18.3 µM [activator, partial curve] | 
13 | Cc1cc(NC(=O)CCN2C(=O)C3C4CCC(C4)C3C2=O)cc(C)c1Br (stereo not drawn) | inconclusive: 29.1 µM [inhibitor, single point] | 
14 | CCN1CCCc2cc(CN(CCN3CCOCC3)C(=O)Nc3ccc(C)c(C)c3)ccc21 | inconclusive: 32.6 µM [inhibitor, partial curve, poor fit] | 
15 | O=C(Nc1ccc(N2CCCC2)cc1)c1ccc([N+](=O)[O-])cc1Cl | inconclusive: 16.4 µM [activator, partial curve, poor fit] | 
16 | Cc1ccccc1-c1nnc(SCCOc2ccc3c(C)cc(=O)oc3c2)o1 |  | inactive: -0.387%
17 | CSCc1ccc(C(=O)Nc2cccc(C)c2C)cc1 | inconclusive: 10.3 µM [activator, partial curve] | 
18 | CCOC(=O)c1ccc(CNC(=O)CSc2nc(NC(=O)c3ccccc3)c3c(C)c(C)oc3n2)cc1 | active: 14.6 µM | 
19 | Cc1onc(-c2c(F)cccc2Cl)c1C(=O)OCC(=O)NCc1ccccc1 | inconclusive: 32.6 µM [inhibitor, single point] | 
20 | COc1cc(CCCN2C(=O)C(=O)NC[C@@H]2CC2CCCCC2)cc(OC)c1OC |  | inactive: -10.4%
21 | Cc1cc(C(=O)COc2ccc(C#N)cc2)c(C)n1-c1ccc2c(c1)OCO2 | inconclusive: 16.4 µM [inhibitor, single point] | 
22 | CCc1cccc(NC(=S)Nc2ccc(CN3CCOCC3)cc2)c1 |  | inactive: 5.42%

Shown as a markdown table: part of the list above.

| Row | SMILES | Potency | activity change, negative = inhibition |
| --- | --- | --- | --- |
| 4 | COc1ccc(-c2cc(C(=O)Nc3ccccc3SC)no2)cc1OC | inconclusive: 29.1 µM [activator, single point] |  |
| 5 | Cc1ccc(N2CCN(c3ccc(C)cc3)C(CC(=O)O)C2=O)cc1 (stereo not drawn) | inconclusive: 16.4 µM [activator, partial curve, poor fit] |  |
| 6 | COc1cc(/C=C2/CCc3ccccc3C2=O)cc(OC)c1OC | inconclusive: 29.1 µM [inhibitor, single point] |  |
| 7 | Cc1cccc(NC(=O)c2cccc(NC3=NC4CS(=O)(=O)CC4S3)c2)c1 (stereo not drawn) | inconclusive: 5.8 µM [inhibitor, single point] |  |
| 8 | CCC(=O)Nc1cccc(-c2ccc(N3CCCCC3)nn2)c1 | inconclusive: 2.59 µM [activator, partial curve] |  |
| 9 | Cc1cccc(NC(=O)Nc2ccncc2)c1 | inconclusive: 20.6 µM [activator, partial curve] |  |
| 10 | COc1ccc(/C=C/C(=O)Nc2ccncc2)cc1OC |  | inactive: 5.06% |
| 11 | O=c1[nH]c(CSc2nnc(-c3cccnc3)n2C2CCCCC2)nc2ccccc12 | inconclusive: 14.6 µM [inhibitor, partial curve, poor fit] |  |
| 12 | CCOC(=O)c1ccc(N2Cc3ccccc3C2=NC(=O)c2ccncc2)cc1 | inconclusive: 18.3 µM [activator, partial curve] |  |

Next records

Row | SMILES | Potency | activity change, negative = inhibition
23 | CCCN1C(=O)S/C(=C\c2ccc(N3CCOCC3)o2)C1=O | inconclusive: 14.6 µM [activator, partial curve] | 
24 | COc1ccc(OC)c(C(c2nnnn2C2CCCC2)N2CCN(c3ccccc3)CC2)c1 (stereo not drawn) |  | inactive: -11.1%
25 | CN(CC(=O)N(C)CC(=O)Nc1c(Cl)cccc1Cl)Cc1ccc(Br)s1 |  | inactive: -6.62%
26 | Cc1cccc(NC(=O)c2ccco2)c1C |  | inactive: 6.25%
27 | Cc1cccc(NC(=O)c2ccccc2OCC(=O)c2ccccc2)c1 |  | inactive: -10.4%
28 | CNC(C)C(=O)NC(C(=O)N1CCCC1C(=O)Nc1ccc2ncccc2c1)C(C)C (stereo not drawn) | inconclusive: 18.3 µM [activator, single point] | 
29 | COc1ccc(CN2CCN(Cc3ccc(C(F)(F)F)cc3)CC2)cc1 | inconclusive: 13 µM [inhibitor, partial curve, poor fit] | 
30 | COc1ccc(OCCCC(=O)Nc2cccc(S(=O)(=O)N3CCCCCC3)c2)cc1 | inconclusive: 4.61 µM [inhibitor, full curve, poor fit] | 
31 | Cc1noc(C)c1COc1cccc(C(=O)Nc2ccccc2N2CCOCC2)c1 | inconclusive: 29.1 µM [inhibitor, single point] | 
32 | CN(C)C1=NC[C@H](Cc2ccccc2)N1CC1CCC(C(C)(C)C)CC1 (stereo partly drawn) |  | inactive: -12.3%
33 | COc1cc(NC(=O)c2ccco2)ccc1NC(=O)c1ccccc1Cl |  | inactive: -3.83%
34 | Cc1cccc(-c2nnc3sc(-c4ccccc4)nn23)c1 | inconclusive: 5.8 µM [activator, full curve] | 
35 | O=C(COc1ccc(S(=O)(=O)N2CCCC2)cc1)N1CCN(c2ccccc2F)CC1 | inconclusive: 16.4 µM [inhibitor, partial curve] | 
36 | Nc1nnc(CC(=O)N/N=C/c2ccc(-c3cccc(C(=O)O)c3)o2)s1 | inconclusive: 14.6 µM [activator, partial curve, poor fit] | 
37 | O=C1c2ccccc2C(=O)N1CCSc1ccccc1 |  | inconclusive: 206% [activator]
38 | COc1ccc2cc(C(=O)N3CCC(Cc4ccccc4)CC3)[nH]c2c1 | inconclusive: 6.51 µM [activator, single point] | 
39 | COc1cccc(CNC(=O)CCC2CCCN(Cc3ccc(OC(F)F)cc3)C2)c1 (stereo not drawn) | inconclusive: 18.3 µM [inhibitor, partial curve] | 
40 | CC(C)OCCCNC(=O)c1cc(-c2cccnc2)nc2ccccc12 | inconclusive: 11.6 µM [inhibitor, partial curve] | 
41 | CCOc1cc(CNc2ccc(N3CCCCC3)cc2)cc(Br)c1OCC(=O)NC(C)(C)C |  | inactive: -19.6%
42 | COc1cccc(/C=N/Nc2snc(SC)c2C#N)c1 | inconclusive: 3.66 µM [activator, partial curve, poor fit] | 
43 | Cc1onc(-c2ccccc2)c1C(=O)Nc1ncc([N+](=O)[O-])s1 | active: 3.66 µM | 
